Results as given in PubChem BioAssay AID2685 (National Center for Advancing Translational Sciences (NCATS), 2010).
This is one part of the list. Shown are side measurements of this screen, not its main read-out; they come without a call. Most of these compounds were active or inconclusive in the main read-out, so they are no random draw. The note in brackets gives the kind of curve behind each potency; many fits are weak.

Assay: qHTS Assay for Lipid Storage Modulators in Drosophila S3 Cells;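 as to cell number change: cells counted by Cell Tracker Red CMTPX staining in the red channel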
Details: BODIPY lipid droplet fluorescence, 18-24 h; for cell number change: measured here: cell count max response, cells fed with added oleic acid
Outline: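 Laser-scanning cytometry quantifies lipid droplet accumulation (500–530 nm total intensity; droplet/cell object ratio) in oleic acid-fed (400 uM added) Drosophila S3 cells treated with a concentration series. 20 uM Triacsin C defined 100% inhibition.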

[1] = measured here: cell number channel AC50, cells fed with added oleic acid
[2] = measured here: lipid fluorescence (Fed channel) AC50, cells fed with added oleic acid

C=C1SC(Nc2c(C)cccc2C)=NC12CCCCC2
cell number change: -50.7%
AC50 [1]: 18.4 µM [falling, single point]
AC50 [2]: 20.6 µM [falling, single point]

CN(CC(=O)Nc1ncn[nH]1)S(=O)(=O)c1ccc(Cl)cc1
cell number change: -7.5%

CSc1ccccc1-c1n[nH]c(=S)o1
cell number change: -19%
AC50 [1]: 4.61 µM [rising, single point]
AC50 [2]: 6.51 µM [rising, single point]

Cc1ccc2c(c1)C(O)(C1COC(C)(C)CC1=O)C(=O)N2C (configuration not stated)
cell number change: 4.4%
AC50 [2]: 6.51 µM [falling, single point]

c1cc(CNCC2CCCO2)ccn1 (configuration not stated)
cell number change: -34.7%
AC50 [1]: 23.1 µM [falling, single point]
AC50 [2]: 11.6 µM [falling, partial curve]

CCC(=O)Nc1nc(C)c(-c2csc(Nc3ccccn3)n2)s1
cell number change: -58.5%
AC50 [1]: 29.1 µM [falling, single point]

O=S(=O)(NCCc1ccccc1)c1ccc(Br)s1
cell number change: 51.1%
AC50 [1]: 11.6 µM [rising, partial curve, poor fit]
AC50 [2]: 7.31 µM [rising, partial curve]

Cc1ccc(CN2CCN(CC(=O)NCc3ccccc3)CC2)cc1
cell number change: 0.824%
AC50 [2]: 16.4 µM [rising, single point]

c1ccc(CNc2ncnc3nc[nH]c23)cc1
cell number change: -2.51%

O=C(CCN1CCC(c2ccc(Cl)s2)=N1)c1ccc(Cl)s1
cell number change: -5.42%

Cc1cccc(NC(=O)/C(C#N)=C\c2cccnc2)c1
AC50 [2]: 0.651 µM [falling, single point]

O=C(NCCc1ccccc1)C1CCN(Cc2ccccc2F)CC1
cell number change: -3.06%
AC50 [1]: 0.00461 µM [falling, full curve, poor fit]
AC50 [2]: 6.51 µM [falling, single point]

CC1(C)CC(=O)C(C(C2=C(O)CC(C)(C)CC2=O)c2cccs2)C(=O)C1 (configuration not stated)
cell number change: -23.9%
AC50 [1]: 4.11 µM [falling, full curve, poor fit]
AC50 [2]: 4.11 µM [falling, full curve, poor fit]

Cc1ccc(S(=O)(=O)c2nc(C(C)(C)C)oc2N2CCOCC2)cc1
cell number change: -86.1%
AC50 [1]: 18.4 µM [falling, single point]
AC50 [2]: 29.1 µM [falling, single point]

COCCNc1cc(NCCOC)c([N+](=O)[O-])cc1[N+](=O)[O-]
cell number change: -2.9%

CCCCN(C)C(=O)c1nc2ccccn2c1CN1CCC[C@H]1CO
cell number change: 29.3%

COc1ccc(Cc2nc3ccc(C(=O)NCC(C)(C)OC)cc3o2)cc1
cell number change: 17.2%

COC(=O)Cn1cc([N+](=O)[O-])nc1C
cell number change: 31.4%
AC50 [1]: 1.46 µM [rising, full curve]
AC50 [2]: 0.731 µM [rising, full curve]
